Results are given in words; binding and its absence hold for the method and conditions named. In cells and extracts the contact can be indirect. These calls come from enrichment with a bait or labelling near it, and not all partners need be listed.
Target: GFP-LATS1 (human) (UniProt O95835)
Assay: affinity purification with mass spectrometry; GFP-LATS1 transiently expressed in HeLa cells, serum starved, untreated or treated with FasL (50 nM) or etoposide (50 uM) for 16 h; lysis in 20 mM HEPES pH 7.5, 150 mM NaCl, 1% NP-40; precipitated with GFP-trap_A; GFP alone as control IP; LC-MS/MS, MaxQuant label-free quantitation

Chains of the proteins cited; added tags and fusions are not shown.
UniProt O95835: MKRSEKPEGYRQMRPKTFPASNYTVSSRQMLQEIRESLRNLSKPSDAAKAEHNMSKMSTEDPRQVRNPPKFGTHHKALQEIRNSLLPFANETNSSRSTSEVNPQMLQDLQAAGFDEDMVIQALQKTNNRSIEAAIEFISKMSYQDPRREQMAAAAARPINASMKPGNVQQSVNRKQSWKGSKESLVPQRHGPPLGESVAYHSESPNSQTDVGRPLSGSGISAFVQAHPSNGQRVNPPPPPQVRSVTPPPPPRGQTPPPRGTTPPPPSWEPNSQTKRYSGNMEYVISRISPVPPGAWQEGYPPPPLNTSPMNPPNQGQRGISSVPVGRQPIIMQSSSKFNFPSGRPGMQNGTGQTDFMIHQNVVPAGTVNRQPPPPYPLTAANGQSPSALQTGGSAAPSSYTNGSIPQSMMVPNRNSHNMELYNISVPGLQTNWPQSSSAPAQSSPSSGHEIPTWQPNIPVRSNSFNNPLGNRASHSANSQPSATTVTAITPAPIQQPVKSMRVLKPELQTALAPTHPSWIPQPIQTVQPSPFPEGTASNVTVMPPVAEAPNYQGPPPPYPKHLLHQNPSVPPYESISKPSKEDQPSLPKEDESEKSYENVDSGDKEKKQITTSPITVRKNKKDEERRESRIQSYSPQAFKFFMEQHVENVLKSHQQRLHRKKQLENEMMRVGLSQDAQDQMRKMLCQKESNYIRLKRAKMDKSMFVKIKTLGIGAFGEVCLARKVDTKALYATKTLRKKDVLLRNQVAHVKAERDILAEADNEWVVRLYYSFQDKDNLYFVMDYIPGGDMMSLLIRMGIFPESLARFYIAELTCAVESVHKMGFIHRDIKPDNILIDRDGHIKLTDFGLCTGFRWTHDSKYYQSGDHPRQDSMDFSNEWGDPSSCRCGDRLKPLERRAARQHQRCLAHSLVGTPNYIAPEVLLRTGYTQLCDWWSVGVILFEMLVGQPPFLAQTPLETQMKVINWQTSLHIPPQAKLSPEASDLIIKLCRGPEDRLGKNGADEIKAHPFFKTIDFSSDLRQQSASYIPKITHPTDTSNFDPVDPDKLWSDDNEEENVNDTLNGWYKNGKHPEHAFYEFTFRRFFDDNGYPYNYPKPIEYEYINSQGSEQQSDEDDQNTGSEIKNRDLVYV
UniProt P27816: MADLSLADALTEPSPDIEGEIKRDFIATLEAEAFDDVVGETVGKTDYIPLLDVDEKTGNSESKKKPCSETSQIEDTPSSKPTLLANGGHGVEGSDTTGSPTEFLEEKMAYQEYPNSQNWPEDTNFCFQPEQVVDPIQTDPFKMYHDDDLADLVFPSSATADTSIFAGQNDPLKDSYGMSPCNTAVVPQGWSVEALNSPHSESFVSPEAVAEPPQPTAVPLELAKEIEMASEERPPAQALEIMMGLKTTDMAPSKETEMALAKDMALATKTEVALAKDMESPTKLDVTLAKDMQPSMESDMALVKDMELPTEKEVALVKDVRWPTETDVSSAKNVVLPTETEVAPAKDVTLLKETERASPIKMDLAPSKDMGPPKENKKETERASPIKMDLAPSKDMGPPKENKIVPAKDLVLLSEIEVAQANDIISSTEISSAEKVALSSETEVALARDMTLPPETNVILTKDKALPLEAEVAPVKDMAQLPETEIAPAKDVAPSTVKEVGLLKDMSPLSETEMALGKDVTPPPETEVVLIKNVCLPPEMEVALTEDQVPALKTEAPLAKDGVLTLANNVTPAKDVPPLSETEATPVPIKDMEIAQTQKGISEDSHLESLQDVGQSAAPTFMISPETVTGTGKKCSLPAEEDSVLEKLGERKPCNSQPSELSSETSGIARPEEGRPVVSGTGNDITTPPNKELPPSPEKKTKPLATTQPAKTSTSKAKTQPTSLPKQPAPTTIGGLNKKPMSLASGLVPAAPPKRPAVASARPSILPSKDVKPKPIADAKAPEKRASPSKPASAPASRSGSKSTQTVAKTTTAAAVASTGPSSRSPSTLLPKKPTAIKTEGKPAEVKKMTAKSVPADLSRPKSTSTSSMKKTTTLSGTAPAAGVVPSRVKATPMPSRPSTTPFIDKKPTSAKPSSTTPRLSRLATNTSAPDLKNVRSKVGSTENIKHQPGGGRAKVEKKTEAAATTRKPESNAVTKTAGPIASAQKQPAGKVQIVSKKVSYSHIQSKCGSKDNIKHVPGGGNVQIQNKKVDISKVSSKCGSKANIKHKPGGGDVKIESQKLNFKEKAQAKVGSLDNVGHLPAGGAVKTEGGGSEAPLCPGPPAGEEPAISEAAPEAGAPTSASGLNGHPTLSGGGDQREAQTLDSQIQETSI

binding: binds
Substance: MAP4 (from UniProt P27816 1-1152)
